In patent US8067615B2, “Sulphonylpyrroles” (4SC AG, priority 2004, dated 2011):
Some of these results come from one statement about several compounds together.

The chains behind the UniProt entries cited, without tags or fusion partners.
UniProt Q13547, whole entry: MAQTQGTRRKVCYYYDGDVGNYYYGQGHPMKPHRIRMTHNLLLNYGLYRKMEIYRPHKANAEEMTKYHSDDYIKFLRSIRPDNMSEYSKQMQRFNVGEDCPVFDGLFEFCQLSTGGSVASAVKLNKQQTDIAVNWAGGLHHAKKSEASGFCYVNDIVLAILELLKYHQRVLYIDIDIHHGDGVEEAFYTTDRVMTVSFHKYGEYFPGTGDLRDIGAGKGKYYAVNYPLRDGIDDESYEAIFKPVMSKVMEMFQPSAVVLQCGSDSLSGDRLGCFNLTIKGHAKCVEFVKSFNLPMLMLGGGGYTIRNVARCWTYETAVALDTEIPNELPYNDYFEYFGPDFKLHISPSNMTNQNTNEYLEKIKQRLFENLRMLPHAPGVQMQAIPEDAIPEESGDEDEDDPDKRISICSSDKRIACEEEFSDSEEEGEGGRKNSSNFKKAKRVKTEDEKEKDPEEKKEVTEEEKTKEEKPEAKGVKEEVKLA

biological target: T1, Recombinant human HDAC1 (Homo sapiens, UniProt Q13547); assay: HDAC1 enzymatic assay with recombinant flag-HDAC1; format: biochemical; conditions: recombinant human flag-HDAC1 expressed in Hek293 cells; 6 μM Ac-NH-GGK(Ac)-AMC, 3 h at 30° C.; read-out: HDAC1 inhibition IC50
T1 construct: made in house

IC50, ≥ 0.95 nM:
CN(C)c1ccc(S(=O)(=O)n2ccc(C=CC(=O)NO)c2)cc1 [Compound 4, (E)-3-[1-(4-Dimethylamino-benzenesulfonyl)-1H-1-pyrrol-3-yl]-N-hydroxy-acrylamide]
Cc1ccc(S(=O)(=O)n2ccc(/C=C/C(=O)Nc3ccccc3N)c2)cc1 [Compound 5, (E)-N-(2-Amino-phenyl)-3-[1-(toluene-4-sulfonyl)-1H-pyrrol-3-yl]-acrylamide]
O=C(/C=C/c1ccn(S(=O)(=O)c2ccc(-n3cccn3)cc2)c1)NO [Compound 25, (E)-N-Hydroxy-3-[1-(4-pyrazol-1-yl-benzenesulfonyl)-1H-pyrrol-3-yl]-acrylamide]
O=C(/C=C/c1ccn(S(=O)(=O)c2ccc(CN(CCO)CCc3cc4ccccc4[nH]3)cc2)c1)NO [Compound 28, (E)-N-Hydroxy-3-{1-[4-({(2-hydroxy-ethyl)-[2-(1H-indol-2-yl)-ethyl]-amino}-methyl)-benzenesulfonyl]-1H-pyrrol-3-yl}-acrylamide]
